{"source": "PubChem BioAssay AID485314", "about": "(National Center for Advancing Translational Sciences (NCATS), 2010)", "note": "Where “and” joins values, the source holds several entries; their conditions need not be identical. Equal values may be shown once. Screen size: about 340,000 compounds; about 4,500 (1.3%) were called active. The inconclusive results got no clear call from the source; some entries with a clear call stand among them for comparison. The call rests on the fitted dose curve; in most records, active means well fitted inhibition curve with a large enough effect; inconclusive means small, poorly fitted or top-dose-only effect, or another doubt; inactive means no such curve, though single readings can be large or run the other way. Potencies of inconclusive entries are doubtful fits and often do not repeat. On the % scale 0 is the no-effect control and ±100 the full control effect; potency means the concentration at half of the fitted maximal effect.", "data": [{"target": "DNA polymerase beta (Homo sapiens) (UniProt P06746)", "assay": "qHTS Assay for Inhibitors of DNA Polymerase Beta", "details": "Pol beta primer extension/strand displacement, fluorescence kinetic; activity change, negative = inhibition: at 114 µM (top of the series)", "method_in_brief": "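10 nM enzyme + cpd, 15 min RT; start with substrate 50 nM final; read 0 min and after 10 min RT. Corrected, normalized data; 4-parameter Hill curve fit.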", "values": [{"compound": "COc1cc(/C=N/NC(=O)CCn2c3ccccc3c3ccccc32)ccc1O", "Potency": "inconclusive: 89.1 µM [inhibitor, single point]"}, {"compound": "COc1cc(Br)c(C(=O)c2nccc3cc(OC)c(OC)cc23)cc1OC", "activity change, negative = inhibition": "inactive: -1.56%"}, {"compound": "CCCCNS(=O)(=O)c1ccc2nc(-c3cccnc3)cc(C(=O)NC(C)C)c2c1", "Potency": "inconclusive: 44.7 µM [inhibitor, partial curve] and inconclusive: 25.1 µM [inhibitor, full curve]"}, {"compound": "Nc1cc(N)cc(-c2nc3ccccc3[nH]2)c1", "activity change, negative = inhibition": "inactive: -0.507%"}, {"compound": "O=C(c1ccc(Br)o1)N(c1ccc(Br)cc1)C1C=CS(=O)(=O)C1", "note": "(stereo unspecified)", "Potency": "inconclusive: 89.1 µM [inhibitor, single point]"}, {"compound": "CCOc1ccc(C(=O)NCc2ccco2)cc1", "Potency": "active: 22.4 µM"}, {"compound": "COC(=O)c1cc(N=Nc2c(C)[nH]c3ccccc23)cc(C(=O)OC)c1", "activity change, negative = inhibition": "inactive: 4.45%"}, {"compound": "Cn1c(=O)n(C)c2cc(S(=O)(=O)Nc3ccccc3O)ccc21", "Potency": "inconclusive: 22.4 µM [inhibitor, partial curve]"}, {"compound": "CCCS(=O)(=O)c1nc(S(=O)(=O)c2ccc(C)cc2)c(N2CCC3(CC2)OCCO3)s1", "activity change, negative = inhibition": "inactive: -1.49%"}, {"compound": "C=CCOc1ccc(CNc2nn[nH]n2)cc1OC", "Potency": "inconclusive: 89.1 µM [inhibitor, single point]"}, {"compound": "CC(=O)c1ccc(NC(=O)CSc2nccn2C)cc1", "Potency": "inconclusive: 79.4 µM [inhibitor, single point]"}, {"compound": "NC(=O)N/N=C/c1c(O)ccc2oc3c(c12)CCCC3", "activity change, negative = inhibition": "inactive: 2.73%"}, {"compound": "CCC1CCCCN1C(=O)CSc1nnc(CNC(=O)c2ccco2)o1", "note": "(stereo unspecified)", "activity change, negative = inhibition": "inactive: 1.93%"}, {"compound": "COc1ccc(CCNC(=O)c2cc3c(=O)n(C)c4ccccc4c3s2)cc1OC", "activity change, negative = inhibition": "inactive: 19.8%"}, {"compound": "CCOc1cc2c(cc1OCC)C(CC(=O)O)N(C(=O)Nc1ccc(Br)c(C)c1)CC2", "note": "(stereo unspecified)", "Potency": "inconclusive: 89.1 µM [inhibitor, single point]"}, {"compound": "COC(=O)COc1ccc(Oc2cc(C)nc(SC)n2)nn1", "Potency": "inconclusive: 39.8 µM [inhibitor, partial curve]"}, {"compound": "O=C(COc1ccccc1)Nc1cccc(-c2nc3ccccc3[nH]2)c1", "Potency": "inconclusive: 70.8 µM [inhibitor, single point]"}, {"compound": "Cc1ccc(NC(=O)/C=C/c2ccco2)cc1F", "Potency": "inconclusive: 89.1 µM [inhibitor, single point]"}, {"compound": "Cn1nnnc1Sc1ncnc2scc(-c3ccccc3)c12", "Potency": "active: 28.2 µM"}, {"compound": "CCOc1ccccc1NC(=O)Cc1c(F)cccc1Cl", "Potency": "inconclusive: 89.1 µM [inhibitor, single point]"}, {"compound": "CCC(=O)Nc1ccc(NC(=O)CSc2nnc(-c3ccco3)n2CC)cc1", "Potency": "inconclusive: 89.1 µM [inhibitor, single point]"}, {"compound": "C=CCOc1nc2sc(C)c(C)c2c(=O)n1-c1ccccc1", "Potency": "inconclusive: 39.8 µM [inhibitor, single point]"}, {"compound": "O=C(c1cnn(C(=O)COc2ccc(Cl)cc2)c1)c1ccccc1O", "Potency": "inconclusive: 50.1 µM [inhibitor, partial curve]"}, {"compound": "CCOc1ccccc1OCC(=O)OCC(=O)NNC(=O)c1ccc([N+](=O)[O-])cc1", "Potency": "inconclusive: 89.1 µM [inhibitor, single point]"}, {"compound": "O=C(Cn1c(=O)c(CNc2ccccc2)cc2cc3c(cc21)OCCO3)Nc1ccccc1Cl", "Potency": "inconclusive: 89.1 µM [inhibitor, single point]"}, {"compound": "COc1cc(/C=N/NC(=O)C(=O)NCc2ccco2)cc(Cl)c1O", "Potency": "inconclusive: 22.4 µM [inhibitor, full curve]"}, {"compound": "CCn1c(C)nc2cc(C(=O)N/N=C/c3ccc(O)c(O)c3O)ccc21", "Potency": "active: 1.58 µM"}, {"compound": "CC(C)(C)C(=O)Nc1ccc(-c2nnc3n2CCCCC3)cc1", "activity change, negative = inhibition": "inconclusive: -79.8% [inhibitor]"}, {"compound": "CCOC(=O)CNc1ccc(OC(F)(F)F)cc1", "Potency": "inconclusive: 63.1 µM [inhibitor, single point]"}, {"compound": "O=C(O)CCN1C(=O)/C(=C2\\C(=O)N(Cc3ccccc3Cl)c3ccccc32)SC1=S", "activity change, negative = inhibition": "inconclusive: -34.7% [inhibitor]"}, {"compound": "Cc1nn(Cc2ccc(Cl)cc2Cl)c(C)c1NC(=O)C1C2CCC(O2)C1C(=O)O", "note": "(stereo unspecified)", "Potency": "inconclusive: 100 µM [inhibitor, single point]"}, {"compound": "O=C(NCc1cccs1)c1ccc(N2CCCC2=O)cc1", "activity change, negative = inhibition": "inactive: 1.3%"}, {"compound": "Cc1ccc(Nc2nc(-c3ccc(O)cc3O)cs2)nc1", "Potency": "inconclusive: 50.1 µM [inhibitor, single point]"}, {"compound": "COc1ccc(OC)c(C2CC(=O)Nc3c2c(=O)[nH]c2nc4ccccc4n32)c1", "note": "(stereo unspecified)", "activity change, negative = inhibition": "inactive: 33.5%"}, {"compound": "N#Cc1ccc(NC(=O)COCc2cc(-c3ccco3)on2)cc1", "activity change, negative = inhibition": "inactive: -27.5%"}, {"compound": "CCCC(NC(=S)NCC1CCCO1)C12CC3CC(CC(C3)C1)C2", "note": "(stereo unspecified)", "Potency": "inconclusive: 100 µM [inhibitor, single point]"}, {"compound": "CN(C)c1cccc2c1c(NS(=O)(=O)c1cn(C)cn1)nn2C", "activity change, negative = inhibition": "inactive: -1.57%"}, {"compound": "Cc1[nH]n(C(N)=S)c(=O)c1N=Nc1ccc(Cl)cc1Cl", "Potency": "inconclusive: 89.1 µM [inhibitor, single point]"}, {"compound": "O=C(Nc1cccc(O)c1)c1ccc(C(=O)c2ccccc2)o1", "Potency": "inconclusive: 89.1 µM [inhibitor, single point]"}, {"compound": "O=C(c1ccc(OC2CCN(CCc3ccccc3)CC2)cc1)N1CCC[C@H]1CO", "Potency": "inconclusive: 89.1 µM [inhibitor, single point]"}, {"compound": "C=CCSc1nnc(CSc2nc3sc4c(c3c(=O)[nH]2)CCCC4)n1-c1ccccc1", "Potency": "inconclusive: 50.1 µM [inhibitor, partial curve]"}, {"compound": "COc1cccc(C(=O)c2cn(CC(=O)NCc3ccco3)c3nc(C)ccc3c2=O)c1", "activity change, negative = inhibition": "inconclusive: -99.6% [inhibitor]"}, {"compound": "CCOc1ccc(NC(=O)c2cnccn2)cc1", "Potency": "inconclusive: 89.1 µM [inhibitor, single point]"}, {"compound": "Cc1ccnc(NS(=O)(=O)c2ccc(NC(=O)C3CC3)cc2)n1", "Potency": "inconclusive: 3.16 µM [inhibitor, single point]"}, {"compound": "O=C(CSc1nc2ccccc2[nH]1)Nc1c(F)c(F)c(F)c(F)c1F", "Potency": "inconclusive: 89.1 µM [inhibitor, single point]"}, {"compound": "CC(NC(=O)CCn1nc(-c2ccc(Cl)cc2)ccc1=O)c1ccccc1", "note": "(stereo unspecified)", "Potency": "inconclusive: 20 µM [inhibitor, full curve, poor fit]"}, {"compound": "Cc1ccccc1CS(=O)(=O)Cc1ccc(C(=O)NCCc2ccc(Cl)cc2)o1", "activity change, negative = inhibition": "inactive: -29.4%"}, {"compound": "Cc1cc(C)c(NC(=O)CN2CCCCCC2)c(C)c1", "Potency": "inconclusive: 89.1 µM [inhibitor, single point]"}, {"compound": "COc1cc(CNC(=O)c2ccc3nc(Cc4ccccc4)oc3c2)cc(OC)c1OC", "activity change, negative = inhibition": "inactive: 2.35%"}, {"compound": "O=C(COC(=O)c1cn(-c2ccccc2)nc1-c1cccnc1)NC1CC1", "activity change, negative = inhibition": "inactive: 34.3%"}, {"compound": "COc1ccc(OC)c(C(=O)CSc2nccc(-c3ccc(Br)cc3)n2)c1", "Potency": "inconclusive: 44.7 µM [inhibitor, partial curve, poor fit]"}, {"compound": "O=C(Nc1ccc(N2CCCCC2)cc1)c1ccc2ccccc2n1", "Potency": "inconclusive: 10 µM [inhibitor, partial curve]"}, {"compound": "CCOC(=O)Cc1ccc(NC(=O)c2ccc([N+](=O)[O-])cc2)cc1", "activity change, negative = inhibition": "inactive: -3.24%"}, {"compound": "Cc1ccc2cccc(S(=O)(=O)N3CCN(c4ccccc4F)CC3)c2n1", "Potency": "inconclusive: 35.5 µM [inhibitor, single point]"}, {"compound": "CCC1(C(=O)c2ccccc2)C(c2ccc([N+](=O)[O-])cc2)C1(C(=O)OC)C(=O)OC", "note": "(stereo unspecified)", "Potency": "inconclusive: 89.1 µM [inhibitor, single point]"}, {"compound": "COc1ccccc1/C=C1\\SC(=S)N(CCC(=O)Nc2ccc(C(=O)O)c(O)c2)C1=O", "Potency": "active: 79.4 µM"}, {"compound": "COc1ccc(-c2cc3nc(-c4ccccc4)cc(N4CCC(O)CC4)n3n2)cc1", "Potency": "inconclusive: 0.891 µM [inhibitor, full curve]"}, {"compound": "O=C(Nc1cccc([N+](=O)[O-])c1)c1cc2ccccc2cc1O", "Potency": "active: 17.8 µM"}, {"compound": "OCCC1CN(Cc2cn[nH]c2C2CCCCC2)CCN1Cc1ccccc1", "note": "(stereo unspecified)", "Potency": "inconclusive: 63.1 µM [inhibitor, single point]"}, {"compound": "Cc1ccc(Cn2c(=O)n(-c3cccc(C(F)(F)F)c3)c(=O)c3c(C)c(C)sc32)c(C)c1", "activity change, negative = inhibition": "inactive: -3.33%"}, {"compound": "O=C(C/C=N\\OCc1ccc([N+](=O)[O-])cc1)Nc1ccc(F)cc1F", "activity change, negative = inhibition": "inactive: 19.9%"}, {"compound": "O=C(Nc1ncc(Cc2cccc(Cl)c2Cl)s1)c1ccc([N+](=O)[O-])cc1", "Potency": "inconclusive: 0.316 µM [inhibitor, full curve, poor fit]"}, {"compound": "CCOc1ccc(C(=O)/C=C/c2cn(CC(O)CN3CCc4ccccc43)c3ccccc23)cc1", "note": "(stereo unspecified)", "activity change, negative = inhibition": "inactive: 1.1%"}, {"compound": "CCOC(=O)c1ccc(N2NC(=O)/C(=C/c3ccc(OC(=O)c4ccco4)c(OC)c3)C2=O)cc1", "Potency": "inconclusive: 5.62 µM [inhibitor, full curve]"}, {"compound": "Cc1cc(C)cc(N2C(=O)N(Cc3cc(=O)n4ccccc4n3)c3ccccc3S2(=O)=O)c1", "activity change, negative = inhibition": "inactive: 12.7%"}, {"compound": "CCc1nn(CC(=O)NCc2ccc(C)cc2)c(=O)c2cc3occc3n12", "Potency": "inconclusive: 10 µM [inhibitor, partial curve]"}, {"compound": "COc1cc(/C=c2\\sc3nc(=O)c(-c4ccccc4)nn3c2=O)ccc1OCCC(C)C", "activity change, negative = inhibition": "inactive: 23%"}, {"compound": "CC(C)Cn1c(N)c(C(=O)COC(=O)c2ccc([N+](=O)[O-])o2)c(=O)n(C)c1=O", "Potency": "inconclusive: 39.8 µM [inhibitor, single point]"}, {"compound": "Cc1cccnc1NC(=O)CCc1nnc2ccc(NCc3ccco3)nn12", "activity change, negative = inhibition": "inconclusive: -82.7% [inhibitor]"}, {"compound": "O=C1C2C3C=CC(C3)C2C(=O)N1c1ccncc1", "note": "(stereo unspecified)", "activity change, negative = inhibition": "inactive: 9.82%"}, {"compound": "O=C(Nc1cccnc1)c1ccc(Cl)c(S(=O)(=O)N2CCc3ccccc32)c1", "Potency": "inconclusive: 22.4 µM [inhibitor, full curve]"}]}]}
